Reference: PubChem BioAssay AID1347131 (National Center for Advancing Translational Sciences (NCATS), 2019)
The campaign covered roughly 410,000 compounds. About 2,000 (0.49%) were called active. This list was built around the results that the source calls inconclusive (neither active nor inactive); the mix of calls is not that of the screen. Calls follow the shape of the full dose curve; tested in HEK293 reporter line. Potencies of inconclusive entries are doubtful fits and often do not repeat.

Test: qHTS Assay for Foot and Mouth Disease Virus Antivirals: Primary Screen against the MLPCN compound library; also: nearly all actives have a fitted effect of over 55% in size
Conditions: FMDV antiviral cell-based qHTS; activity, negative = inhibition: at 57.9 µM (top of the series)
Potency is read from the fitted curve at half-maximal effect.

Row | SMILES | activity, negative = inhibition | Potency
1 | O=S(=O)(c1cccs1)N1CCN(CCc2ccccc2)CC1 | inactive: -43.5% | 
2 | COC(=O)c1cnn(-c2ccc(Cl)cc2)c1/C=N/NC(N)=S |  | inconclusive: 14.1 µM [inhibitor, partial curve, poor fit]
3 | Cc1c(C(=O)NCc2ccc(Cl)c(Cl)c2)sc(=O)n1Cc1ccc(S(=O)(=O)N(C)C)cc1 |  | inconclusive: 22.4 µM [inhibitor, partial curve, poor fit]
4 | COc1ccc(C[C@H]2CN3C(=NC[C@@H]3Cc3ccc(O)cc3)N2C[C@H](C)NC(=O)CCC2CCCCC2)cc1 | inactive: -31.2% | 
5 | CCCCOc1ccc(C(=O)NCCS(=O)(=O)N2CCN(c3ccccc3OC)CC2)cc1 |  | inconclusive: 14.1 µM [inhibitor, partial curve, poor fit]
6 | CC(C)CC(=O)NC(Nc1ccc([N+](=O)[O-])cc1)C(Cl)(Cl)Cl (configuration not stated) |  | inconclusive: 31.6 µM [inhibitor, partial curve, poor fit]
7 | Cc1ccc(N/C=C/C(=O)c2ccccc2)cc1C |  | active: 7.94 µM
8 | COCCn1c(C)cc(C(=O)CSc2nc3ccccc3o2)c1C |  | inconclusive: 17.8 µM [inhibitor, single point]
9 | O=C(NN=C1CCCC1)c1n[nH]c2c1CCCC2 |  | inconclusive: 17.8 µM [inhibitor, partial curve]
10 | O=C1N/C(=N/NC(=O)c2cccc3ccccc23)S/C1=C\c1ccccc1OCc1ccccc1 |  | inconclusive: 7.08 µM [inhibitor, partial curve, poor fit]
11 | CC1CN(S(=O)(=O)c2ccc(C(=O)Nc3ccccc3F)cc2)CC(C)O1 (configuration not stated) | inactive: -34.4% | 
12 | CCOC(=O)c1c(C)oc2ncnc(N3CCN(c4cccc(Cl)c4)CC3)c12 |  | inconclusive: 28.2 µM [inhibitor, partial curve, poor fit]
13 | O=C(C#Cc1ccccc1)c1ccco1 |  | inconclusive: 8.91 µM [inhibitor, full curve, poor fit]
14 | COCCCNC(=O)c1ccc(CS(=O)(=O)c2ccc(OC)cc2)o1 |  | inconclusive: 3.16 µM [inhibitor, partial curve, poor fit]
15 | Cc1ccc(S(=O)(=O)N[C@@H](Cc2ccccc2)C(=O)CCl)cc1 |  | inconclusive: 31.6 µM [inhibitor, partial curve, poor fit]
16 | O=C(CCCCn1c(=O)c2ccccc2n(CC(=O)Nc2cccc(F)c2)c1=O)NCc1ccccc1Cl | inactive: -35% | 
17 | CCOC(=S)SCC(=O)Nc1nccs1 |  | inconclusive: 22.4 µM [inhibitor, partial curve, poor fit]
18 | Cc1ccc(N/N=C(\C#N)C(=N)N2CCCCC2)cc1 |  | inconclusive: 22.4 µM [inhibitor, single point]
19 | Cc1c(CN2CCC(CO)(CCOc3ccccc3)CC2)[nH]c2c(Cl)cccc12 |  | inconclusive: 11.2 µM [inhibitor, partial curve, poor fit]
20 | COc1ccccc1N=c1scc(-c2ccc3c(c2)NC(=O)CO3)n1CC1CCCO1 (configuration not stated) |  | inconclusive: 35.5 µM [inhibitor, single point]
21 | CC(C)(C)OC(=O)N(CCc1ccccc1)Cc1ccc(OCc2cccc(NC(=O)C3CC3)c2)cc1 |  | inconclusive: 22.4 µM [inhibitor, partial curve, poor fit]

Row | SMILES | activity, negative = inhibition | Potency
22 | CCCCOC(=O)c1ccc(NC(=O)c2ccc3c(c2)CCN3S(C)(=O)=O)cc1 |  | inconclusive: 35.5 µM [inhibitor, partial curve, poor fit]
23 | Clc1ccc2nc(-c3ccccc3)cn2c1 |  | inconclusive: 15.8 µM [inhibitor, single point]
24 | COc1ccccc1CN1C(=O)[C@@H]2Cc3c([nH]c4ccccc34)C(C)(C)N2C1=O |  | inconclusive: 28.2 µM [inhibitor, partial curve, poor fit]
25 | O=[N+]([O-])c1ccc2c(c1Nc1ccccc1Cl)=NC1(CCCCC1)N=2 | inconclusive: -30.6% [inhibitor] | 
26 | Cc1ccc(C(=O)Nc2ccc3c(c2)OCO3)cc1 |  | inconclusive: 12.6 µM [inhibitor, single point]
27 | CC(C)(C)c1ccc(/C=C/C(=O)NC2=NCCS2)cc1 |  | inconclusive: 20 µM [inhibitor, partial curve]
28 | CCOC(=O)c1ccc(N2C(=O)c3n[nH]c(-c4ccco4)c3C2c2ccccc2OC)cc1 (configuration not stated) |  | inconclusive: 22.4 µM [inhibitor, partial curve, poor fit]
29 | Cn1c(=O)c2c(nc(N3CCCCCC3)n2Cc2cccc3ccccc23)n(C)c1=O |  | inconclusive: 28.2 µM [inhibitor, partial curve, poor fit]
30 | COc1ccc(C)c2sc(N(Cc3cccnc3)C(=O)c3cccs3)nc12 |  | inconclusive: 14.1 µM [inhibitor, partial curve]
31 | O=C(c1ccccc1)C(CN1CCCC1)c1ccccc1 (configuration not stated) |  | inconclusive: 3.55 µM [inhibitor, full curve, poor fit]
32 | O=C(CN1CCc2cc3c(cc2C1)OCCCO3)Nc1c(F)cccc1F |  | inconclusive: 20 µM [inhibitor, partial curve, poor fit]
33 | Cc1cc(-c2csc(N)n2)c(C)n1CCC(C)C |  | inconclusive: 22.4 µM [inhibitor, partial curve, poor fit]
34 | CC(C(=O)O)c1ccc(N2Cc3ccccc3C2=O)cc1 (configuration not stated) |  | inconclusive: 15.8 µM [inhibitor, single point]
35 | CCOc1ccc(C(=O)Nc2ccc3nc(N(CC)CC)cc(C)c3c2)cc1 |  | inconclusive: 31.6 µM [inhibitor, partial curve, poor fit]
36 | O=C1CN=C(c2ccc(Br)cc2)c2c(sc3c2CCCC3)N1CCN1CCCCC1 | inactive: -32% | 
37 | C(=N\N(c1ccccc1)c1ccccc1)/c1ccc2c(c1)OCO2 |  | inconclusive: 20 µM [inhibitor, single point]
38 | CC(C)C(=O)Nc1nc2cc3c(cc2s1)OCCO3 |  | inconclusive: 14.1 µM [inhibitor, partial curve]
39 | Cc1ccc(C(=O)N2CCN(c3ccc(NC(=O)COc4ccccc4C)cc3)CC2)cc1 |  | inconclusive: 14.1 µM [inhibitor, partial curve, poor fit]
40 | COCCn1c(-c2ccc(Br)cc2)csc1=Nc1cccnc1 |  | inconclusive: 31.6 µM [inhibitor, partial curve, poor fit]
41 | N#CCC1c2ccccc2CCN1C(=O)Nc1cccc(C(F)(F)F)c1 (configuration not stated) |  | inconclusive: 28.2 µM [inhibitor, single point]
42 | Cc1[nH]c(=O)c(C(=O)/C=C/c2ccccc2F)c2c1CCCC2 |  | inconclusive: 14.1 µM [inhibitor, partial curve, poor fit]

Grouped by structure: the entries above containing a cyano group.
Row | SMILES | activity, negative = inhibition | Potency
18 | Cc1ccc(N/N=C(\C#N)C(=N)N2CCCCC2)cc1 |  | inconclusive: 22.4 µM [inhibitor, single point]
41 | N#CCC1c2ccccc2CCN1C(=O)Nc1cccc(C(F)(F)F)c1 (configuration not stated) |  | inconclusive: 28.2 µM [inhibitor, single point]

(next part)

Row | SMILES | activity, negative = inhibition | Potency
43 | Cc1ccc(Nc2c3c(nc4ccccc24)CCC3)cc1 |  | inconclusive: 17.8 µM [inhibitor, partial curve, poor fit]
44 | Cc1ccc(S(=O)(=O)N(C)CC(=O)NCCc2c[nH]c3ccccc23)cc1 |  | inconclusive: 15.8 µM [inhibitor, partial curve, poor fit]
45 | O=C(O)c1ccnc(Cl)c1 | inactive: -30.7% | 
46 | Cc1ccc(C(=O)N(CC(=O)Nc2sc(C)c(C)c2C(N)=O)C2CCCC2)cc1 | inactive: -39.9% | 
47 | O=C(CCl)NN=C(c1ccccc1)c1ccccc1 |  | inconclusive: 25.1 µM [inhibitor, partial curve, poor fit]
48 | COC(=O)c1ccc(CSc2ccc3nnc(-c4ccc(F)cc4)n3n2)o1 | inactive: -33.2% | 
49 | CC(C)CCn1c(=O)c2ccccc2n2c(CCl)nnc12 |  | inconclusive: 31.6 µM [inhibitor, partial curve, poor fit]
50 | Cc1ccc(C(=O)OC(C)C(=O)NC2CCCCC2)cc1S(=O)(=O)N1CCCCC1 (configuration not stated) |  | inconclusive: 28.2 µM [inhibitor, single point]
51 | Cc1oc(-c2cccs2)nc1CSCC(=O)N1CCC2(CC1)OCCO2 | inactive: -30.5% | 
52 | Cc1cc(NS(=O)(=O)c2ccc(NC(=O)COc3ccccc3C(C)C)cc2)no1 |  | inconclusive: 4.47 µM [inhibitor, single point]
53 | Cc1cccc(-n2c(O)c(C=Nc3ccccc3)c3ccccc3c2=O)n1 | inactive: -31.3% | 
54 | CC1=NN(Cc2ccccc2)C(=O)C1C(c1ccc(Cl)cc1)C(C#N)C#N (configuration not stated) |  | inconclusive: 28.2 µM [inhibitor, partial curve, poor fit]
55 | Cc1ccc2nc(NC(=O)c3ccco3)sc2c1 |  | active: 12.6 µM
56 | CC(=O)Nc1nc(C)c(Oc2ccc(C)cc2)c(=O)[nH]1 |  | inconclusive: 11.2 µM [inhibitor, partial curve]
57 | COc1ccc(CCNC(=O)c2ccc(CS(=O)(=O)c3ccc(Cl)cc3)o2)cc1OC |  | inconclusive: 15.8 µM [inhibitor, partial curve, poor fit]
58 | CC[C@@H](C)[C@@H](C(=O)N1CCN(C(=O)OC(C)(C)C)CC1)n1cc(CCCCNC(=O)OC(C)(C)C)nn1 |  | inconclusive: 12.6 µM [inhibitor, partial curve, poor fit]
59 | CC1=CC(C)(C)Nc2ccc(OC(=O)C(C)N3C(=O)c4ccccc4C3=O)cc21 (configuration not stated) |  | inconclusive: 28.2 µM [inhibitor, partial curve, poor fit]
60 | Cc1cc(/C=c2\sc3nc4ccccc4n3c2=O)c(C)n1-c1ccc(C(=O)O)cc1 |  | inconclusive: 10 µM [inhibitor, partial curve]
61 | O=C(Nc1ccc(Br)c(C(F)(F)F)c1)c1ccc(C(F)(F)F)cc1 |  | inconclusive: 11.2 µM [inhibitor, partial curve]
62 | COc1ccc(N(C(C)C(=O)N2CCC(Cc3ccccc3)CC2)S(C)(=O)=O)cc1 (configuration not stated) |  | inconclusive: 11.2 µM [inhibitor, partial curve, poor fit]
